Assay results published in PubChem BioAssay AID1671189 (National Center for Advancing Translational Sciences (NCATS), 2021).
The hits were mostly taken out for another list; the other results follow. Activity calls are given as the source filed them. The call rests on the fitted dose curve; in most records, active means well fitted curve in the direction sought with a large enough effect; inconclusive means small, poorly fitted or top-dose-only effect, or another doubt; inactive means no such curve, though single readings can be large or run the other way.
On the % scale 0 is the no-effect control and ±100 the full control effect.

Protein sequences, listed by entry. Tags and fused reporters are not part of them. Lines headed by an entry give the natural chain unless they say otherwise; changes in a name come on top.
UniProt P18054: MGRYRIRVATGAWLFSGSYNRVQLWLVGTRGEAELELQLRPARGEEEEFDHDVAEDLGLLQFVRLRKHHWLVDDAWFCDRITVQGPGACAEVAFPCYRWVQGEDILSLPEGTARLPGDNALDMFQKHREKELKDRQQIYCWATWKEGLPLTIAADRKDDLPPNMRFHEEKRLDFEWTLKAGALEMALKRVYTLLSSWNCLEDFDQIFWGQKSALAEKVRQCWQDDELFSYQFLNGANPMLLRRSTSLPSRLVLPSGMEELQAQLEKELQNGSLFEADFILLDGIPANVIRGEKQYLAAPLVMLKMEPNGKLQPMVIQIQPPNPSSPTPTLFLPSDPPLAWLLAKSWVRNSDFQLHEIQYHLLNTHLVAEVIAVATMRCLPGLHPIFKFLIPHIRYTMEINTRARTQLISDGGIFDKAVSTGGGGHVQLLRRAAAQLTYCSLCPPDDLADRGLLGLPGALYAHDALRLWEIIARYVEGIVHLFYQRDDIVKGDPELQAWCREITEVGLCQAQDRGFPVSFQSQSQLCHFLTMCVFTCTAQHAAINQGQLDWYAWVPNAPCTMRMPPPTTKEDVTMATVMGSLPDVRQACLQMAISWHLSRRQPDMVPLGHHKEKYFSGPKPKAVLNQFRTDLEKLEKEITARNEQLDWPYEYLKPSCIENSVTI

What follows are compounds tested against Polyunsaturated fatty acid lipoxygenase ALOX12 (Homo sapiens) (UniProt P18054) (assay: Confirmatory qHTS assay for inhibitors of human arachidonate 12S-lipoxygenase (ALOX12): Round 2). Details: purified human 12-LOX, xylenol orange absorbance; at 125 µM (top of the series).
From the text: Assay Provider: Theodore R. Holman Ph.D. University of California, Santa Cruz, California Human lipoxygenase 12hLO is a member of the closely related lipoxygenase family of enzymes which catalyze the site-specific oxidation of arachidonic acid to various hormone precursor molecules and as such is a candidate for drug development in a variety of disease areas, such as cancer and inflammation. Inhibition of 12hLO activity was screened by utilizing arachidonic acid as a substrate. The extent of hydroperoxide product formation was measured by a secondary chromogenic reaction in which xylenol orange (XO, Sigma-Aldrich, cat. number 39,818-7) reacts with the ferric ions produced from the reaction between the hydroperoxide and ferrous ions. The Fe (III)-XO complex is characterized with red-shifted absorbance at 560 nm. […]
PROTOCOL TABLE SEQUENCE No. (e.g., 1, 2, 3, etc.); […] […] 7; Incubation; 30 min; room temperature 8; Detector; absorbance; Read 1 at 405 nm absorbance using ViewLux (PerkinElmer) CCD imager. 9; Detector; absorbance; Read 2 at 573 nm absorbance using ViewLux (PerkinElmer) CCD imager. […] 8, 9; Two absorbance readouts were obtained at 405 nm and at 573 nm using a ViewLux high-throughput CCD plate imager (PerkinElmer). The 573 to 405 (Read 2 / Read 1) absorbance ratio was used to compute reaction progress.
`Nc1nc2ccc(OC(F)(F)F)cc2s1` was tested, and the activity change, negative = inhibition was inactive: -16.6%.
